# Measurements: PubChem BioAssay AID2099 (Broad Institute, 2009)
# By UniProt entry, the sequences of proteins in these tests, tags left out. Residues count along the entry.
# UniProt Q9H3R0, 1-420 limits assumed: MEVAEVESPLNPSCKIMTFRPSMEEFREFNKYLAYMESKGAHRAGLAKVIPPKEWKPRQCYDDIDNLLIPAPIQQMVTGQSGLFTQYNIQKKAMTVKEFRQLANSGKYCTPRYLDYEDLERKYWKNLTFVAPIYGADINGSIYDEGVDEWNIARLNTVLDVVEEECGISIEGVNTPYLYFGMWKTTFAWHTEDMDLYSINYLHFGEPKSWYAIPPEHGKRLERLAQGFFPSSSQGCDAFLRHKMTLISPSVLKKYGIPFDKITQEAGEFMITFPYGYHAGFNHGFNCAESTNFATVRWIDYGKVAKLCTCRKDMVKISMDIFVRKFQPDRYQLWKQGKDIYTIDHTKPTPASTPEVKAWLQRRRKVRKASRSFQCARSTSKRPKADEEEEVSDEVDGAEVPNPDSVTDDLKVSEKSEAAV
# Hit rate of the full screen: of about 330,000 compounds, about 230 (0.07%) were called active. This list was built around the results that the source calls inconclusive (neither active nor inactive); the mix of calls is not that of the screen.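 The calls were made as follows: active = more than half of a compound's replicate wells show inhibition beyond 50%, single wells judged on their own value; inconclusive = some, but no more than half, of replicates pass 50% inhibition; inactive = no replicate passes 50% inhibition.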
# Target: Lysine-specific demethylase 4C (Homo sapiens) (UniProt Q9H3R0)
# Test: inhibitors of GASC-1 histone demethylase, primary screen, biochemical, fluorescence, DELFIA europium (AID 2099);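 also: signal counts dimethyl H3K9 product captured on neutravidin plate; 0% = median of DMSO wells and 100% = 0.3 times that DMSO median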
# Details: GST-JMJD2C(1-420) H3K9me3 demethylation, at 2.35 µM, active compounds read high
row,SMILES,inhibition
1,CC(=O)N1CCOc2ccc(S(=O)(=O)NCCc3cccc(C)c3)cc21,inactive: 4.42%
2,CCOc1ccc(S(=O)(=O)NCCC(=O)N2CC=C(c3ccccc3)CC2)cc1,inactive: 8.87%
3,C/C(N)=C(/C#N)C(=O)CSc1nc2ccccc2n1CC(C)C,inconclusive: -65%
4,O=C(O)C1CCN(C(=O)COc2ccc3c4c(c(=O)oc3c2)CCCC4)CC1,inconclusive: -212%
5,O=C(CSc1nnc2c(n1)[nH]c1ccccc12)Nc1nncs1,inconclusive: -63.5%
6,COc1cccc(NC(=O)[C@H](Cc2c[nH]c3ccccc23)NC(=O)[C@@H]2Cc3ccccc3CN2)c1,inconclusive: -147%
7,Cc1ccccc1OCCCN1CCCC1,inconclusive: -56.9%
8,COc1ccccc1NC(=O)Nc1nc(CC(=O)Nc2cc(F)ccc2F)cs1,inconclusive: -74.8%
9,Cc1ccc(C(=O)N2CCOCC2)cc1S(=O)(=O)N1CCCCC1,inconclusive: -125%
10,O=C(COC(=O)Cc1ccsc1)Nc1cccc(F)c1,inactive: 1.31%
11,CN1CCN(C2=C(Cl)C(=O)N(c3ccc(Cl)c(Cl)c3)C2=O)CC1,inconclusive: -227%
12,COc1ccccc1OCC(=O)N1CCN(c2ccccc2OC)CC1,inconclusive: -53.8%
13,Cc1ccccc1-c1nc(CS(=O)CC(=O)NCCN2CCN(Cc3ccccc3)CC2)c(C)o1 (stereo not drawn),inactive: 6.08%
14,C=CCc1cc(C)ccc1OCCOCCC(C(=O)OCC)C(=O)OCC,inactive: -30.9%
15,CN(C)[C@@H]1C(=O)C(C(=O)NCN2CCCC2)=C(O)[C@@]2(O)C(=O)C3=C(O)c4c(O)cccc4[C@@](C)(O)C3CC12 (stereo partly drawn),inconclusive: -109%
16,O=S(=O)(c1ccc(OCC(O)CN2CCN(c3ccc(F)cc3)CC2)cc1)N1CCOCC1 (stereo not drawn),inconclusive: -74.4%
17,COc1ccnc(Oc2ccc(F)cc2)c1C(=O)N/C=N/OCc1ccc(F)cc1,inconclusive: -150%
18,COc1ccccc1NC(=O)Nc1ccccc1C#N,inactive: -2.35%
19,Cc1ccc(NC(=S)NCCc2ccc(F)cc2)c(C)c1,inactive: 10.5%
20,COc1cc2c(cc1OC)C(CCc1ccccc1)=NCC2,inactive: -11.6%
21,COc1cc2c(cc1OC)[C@H](C)N(C(=O)NCc1ccccc1)CC2,inconclusive: -97.7%
22,CSCc1cc(N2CCOCC2)nc(SCc2ccc(Cl)c(Cl)c2)n1,inconclusive: -141%

# As entered above:
# In inhibition, `COc1ccccc1NC(=O)Nc1ccccc1C#N` shows inactive: -2.35%
# In inhibition, `Cc1ccccc1OCCCN1CCCC1` shows inconclusive: -56.9%
# In inhibition, `O=C(CSc1nnc2c(n1)[nH]c1ccccc12)Nc1nncs1` shows inconclusive: -63.5%

# 2 consecutive entries from above, for reference:
row,SMILES,inhibition
13,Cc1ccccc1-c1nc(CS(=O)CC(=O)NCCN2CCN(Cc3ccccc3)CC2)c(C)o1 (stereo not drawn),inactive: 6.08%
14,C=CCc1cc(C)ccc1OCCOCCC(C(=O)OCC)C(=O)OCC,inactive: -30.9%

# The results go on.

row,SMILES,inhibition
1,CCCOc1cccc(C2/C(=C(/O)c3ccccc3)C(=O)C(=O)N2CCN(C)C)c1 (stereo not drawn),inconclusive: -61.2%
2,Cc1c(Cl)cccc1NC(=O)CC1SCCNC1=O (stereo not drawn),inconclusive: -56.5%
3,O=C(COc1ccc([N+](=O)[O-])cc1)N(C1CCCCC1)C1CCS(=O)(=O)C1 (stereo not drawn),inconclusive: -128%
4,O=C(CCc1ccccc1Cl)Nc1ccc(S(=O)(=O)N2CCOCC2)cc1,inactive: 3.44%
5,CC12CCC(=O)N1C(C(=O)Nc1cccc(S(=O)(=O)N3CCCCCC3)c1)CS2 (stereo not drawn),inconclusive: -168%
6,O=C(N/N=C/c1ccc(OCc2ccccc2)cc1)c1ccco1,inconclusive: -53%
7,COC(=O)c1nnn(CC(=O)Nc2cccc(OC)c2)c1C(=O)OC,inconclusive: -54.8%
8,COc1ccccc1N1CCN(C(=O)CSc2nnc(NC(=O)C3CC3)s2)CC1,inactive: 21.7%
9,Cc1cc(C(C)(C)C)cc(C)c1COC(=O)CN1C(=O)NC2(CCCC2)C1=O,inactive: -2.91%
10,CN(C(=O)CO/N=C/c1ccc(Cl)cc1)c1ccccc1,inconclusive: -194%
11,CCOc1ccc(-c2ncncc2-c2ccc(OC)c(OC)c2)c(O)c1,inconclusive: -53.7%
12,O=C(COC(=O)C1CC1)Nc1ncc(Cl)cc1Cl,inconclusive: -135%
13,N#Cc1cccc(OC(=O)c2ccc3c(=O)n4c(nc3c2)CCC4)c1,inconclusive: -56.3%
14,Cc1sc2nc(CSCC(=O)N(C)CC(=O)Nc3ccc(F)cc3)[nH]c(=O)c2c1C,inconclusive: -98.1%
15,CCOC(=O)C1=C(C)NC2=C(C(=O)C(C(=O)OC)C(C)C2)C1c1ccc(OC)c(O)c1 (stereo not drawn),inconclusive: -62.8%
16,CC(=O)c1ccc(NC(=O)c2ccccc2Sc2ncnc3sc(C)c(C)c23)cc1,inactive: -0.67%
17,Oc1ccc(/C=N/Nc2nc(N3CCCC3)nc(N3CCCC3)n2)cc1O,inconclusive: -78.9%
18,CCCCn1c(N)c(N(CC(C)C)C(=O)c2ccco2)c(=O)[nH]c1=O,inconclusive: -176%
19,Cc1ccc(S(=O)(=O)Cn2nnnc2C(CC(C)C)N2CCN(c3ccccc3)CC2)cc1 (stereo not drawn),inconclusive: -96.1%
20,O=Nc1c(O)n(Cc2cccc(Cl)c2)c2ccccc12,inconclusive: -128%
21,C=CCN(CC=C)Cc1c(O)ccc2c1oc(=O)c1ccccc12,active: 78.6%
22,CCc1nnc(NC(=O)CS(=O)(=O)Cc2ccccc2)s1,inconclusive: -67.2%

row,SMILES,inhibition
1,COc1ccccc1N1C(=NC(=O)CCc2ccccc2)SC2CS(=O)(=O)CC21 (stereo not drawn),inconclusive: -87%
2,Cn1c(Cc2cccs2)nnc1SCC(=O)Nc1ccccc1F,inconclusive: -17.2%
3,Cc1nn(Cc2ccc(Cl)c(Cl)c2)c(C)c1NC(=O)c1cc(-c2ccco2)on1,inconclusive: -142%
4,Cc1[nH][nH]c(=O)c1C(c1c(C)[nH][nH]c1=O)c1cn(Cc2cccc3ccccc23)c2ccccc12,active: 68.1%
5,O=C(O)c1ccc(/C=N/Nc2ccc(Cl)nn2)cc1,inactive: -4.14%
6,COc1cc(O)c(C(CCN2CCN(c3ccccc3)CC2)c2ccc(N(C)C)cc2)c(OC)c1 (stereo not drawn),inactive: -6.3%
7,COc1ccc(C(c2c(O)ccc3ccccc23)N2CCOCC2)c(OC)c1 (stereo not drawn),inactive: -6.54%
8,CCOc1ccc(N(C)C(=O)CCc2nnc3ccc(N4CCCCC4)nn23)cc1,inconclusive: -57.5%
9,CCN(C(=O)CCN1C(=O)/C(=C/c2ccccc2)SC1=S)C1CCS(=O)(=O)C1 (stereo not drawn),inconclusive: -99.9%
10,COc1ccc([N+](=O)[O-])c(OC)c1C(=O)NC(=O)Nc1c(F)cc(F)cc1F,inconclusive: -50.5%
11,CCN(CC(=O)NCC1CCCO1)S(=O)(=O)c1ccc(Cl)cc1 (stereo not drawn),active: 50.4%
12,Cc1ncoc1C(=O)Nc1cccc(Cl)c1,inconclusive: -111%
13,COc1ccc(/C(C)=N/N=C2/NC(=O)CC(C(=O)O)S2)cc1F (stereo not drawn),inconclusive: -89.6%
14,CCC(CC)C(=O)Nc1cc(C)c2c(=O)oc3ccccc3c2n1,inactive: -13.5%
15,CCN(C(=O)c1ccc2c(=O)n3c(nc2c1)CCCCC3)c1ccccc1C,inactive: 7.98%
16,CCn1c(C(=O)N2CCc3ccccc3C2)cc2sccc21,inactive: 34.8%
17,COc1cccc(CNC(=O)C2CCCN(c3nn4c(=O)cc(C)nc4s3)C2)c1OC (stereo not drawn),inconclusive: -96.6%
18,COc1cc(OC)cc(C(=O)N2CCN(Cc3ccccc3[N+](=O)[O-])CC2)c1,inconclusive: -76.2%
19,NC(=O)NCc1cccc(Cl)c1,inconclusive: -185%
20,O=S(=O)(c1ccccc1)N1CCN(CC(O)COc2ccc3c(c2)CCC3)CC1 (stereo not drawn),inactive: -0.642%
21,NSc1nc(N)c2nc(-c3ccccc3)c(-c3ccccc3)nc2n1,inactive: 3.61%
22,O=C(c1ccco1)N1CCN(c2ncnc3scc(-c4ccc(F)cc4)c23)CC1,inconclusive: -180%

row,SMILES,inhibition
1,CC1(C)Cc2ccccc2-c2nc(-c3ccccc3)oc(=O)c21,inconclusive: -60.1%
2,Cc1ccc(C(=O)CSc2nnc(-c3ccco3)o2)o1,inconclusive: -54.8%
3,COc1ccccc1-n1c(SCC(=O)N2CCCC2)nc2cccnc21,active: 61.5%
4,O=C(CSc1ncn[nH]1)Nc1c(F)cc(F)cc1Br,inconclusive: -151%
5,COC(=O)c1c(C)[nH]c(C(=O)OC(C)C(=O)N(C)C2CCCCC2)c1C (stereo not drawn),inconclusive: 102%
6,CCc1ccc(C(=O)C(C)OC(=O)c2cccc(S(=O)(=O)N3CCOCC3)c2)cc1 (stereo not drawn),inconclusive: -134%
7,Cc1ccc2sc(NC(=O)c3cccc(N4C(=O)CCC4=O)c3)nc2c1C,inconclusive: -57.6%
8,Cc1ccc(OCc2cc(C(=O)N3CCN(C4CCCC4)CC3)no2)cc1C,inactive: -2.15%
9,Oc1c(Cl)cc(Cl)cc1Sc1cc(Cl)cc(Cl)c1O,inconclusive: -68.4%
10,O=C(O)CNc1nc(Cl)ccc1[N+](=O)[O-],inconclusive: -107%
11,Cc1c(Nc2scc(-c3ccccc3)[n+]2-c2ccccc2)c(=O)n(-c2ccccc2)n1C,inactive: 24.9%
12,CN(Cc1ccccc1)C(=O)Cn1c(=O)oc2cc(S(=O)(=O)NCc3ccccc3)ccc21,inactive: -8.79%
13,CC1CCN(S(=O)(=O)c2ccc(Oc3ccc([N+](=O)[O-])cc3)cc2)CC1,inactive: -14.1%
14,O=S1(=O)N[C@@H](CC2=CCCCC2)C2CCCCC2O1 (stereo partly drawn),inconclusive: -130%
15,CCOC(=O)Cn1cnc([N+](=O)[O-])n1,inconclusive: -60.4%
16,CCC(=O)N1CCc2cc(Br)cc(S(=O)(=O)CC(=O)OC)c21,active: 99.1%
17,Cc1c(NC(=O)COC(=O)c2ccc(Br)o2)c(=O)n(-c2ccccc2)n1C,inconclusive: -134%
18,O=C(Nc1cccc(Br)c1)c1cc2ccccc2o1,inactive: -10.5%
19,O=C(N=C1SC2CS(=O)(=O)CC2N1c1c(Cl)cccc1Cl)C1CC1 (stereo not drawn),inconclusive: -67.8%
20,CCNC(=S)NNC(=O)c1ccc(OC)cc1,inactive: -2.37%
21,O=C(NCCS(=O)(=O)N1CCN(c2ccccc2)CC1)c1cccc(F)c1,inconclusive: -73.9%
22,Cc1cc(NC(=O)COC(=O)C(Nc2ccc(C(F)(F)F)cc2Cl)C(C)C)no1 (stereo not drawn),inconclusive: -134%
